The list shows a part of the results. These are further read-outs of the screen, such as a control signal, another cell line or another target. No call is given for them. Most of these compounds were active or inconclusive in the main read-out, so they are no random draw. The note in brackets gives the kind of curve behind each potency; many fits are weak.
Assay: qHTS Assay to Find Inhibitors of Chronic Active B-Cell Receptor Signaling
Conditions: ABC-DLBCL IkBa-CBG/CBR reporter, luminescence ratio (green luciferase fused to IkBa over red control in TMD8 lymphoma cells), 4 h
How it was run: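 TMD8 ABC-DLBCL cells carrying doxycycline-inducible green luciferase fused to IkappaBalpha plus unfused red luciferase were exposed to compounds (up to 46 uM) for 4 hrs at 37C. Activity came from the overlap-corrected green/red luminescence ratio.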

[1] = measured here: CBR red luminescence, cell number
[2] = measured here: IkBa-CBG green luminescence

SMILES	AC50 [1]	AC50 [2]
CN(C)CCCNc1cc(-c2ccccc2)nc2cc(-c3cccc(F)c3)nn12	12.6 µM [falling, partial curve]	–
CCCCC(=O)NC(c1ccc(Cl)cc1Cl)c1ccc2cccnc2c1O (centres undefined)	35.5 µM [falling, single point]	–
Cc1ccc(S(=O)(=O)NCC2CCC(C(=O)NCc3cccs3)CC2)cc1 (centres undefined)	1.12 µM [rising, full curve, poor fit]	–
CCOC(=O)c1[nH]c(C)c(C(=O)N2CCc3c([nH]c4ccccc34)C2c2ccccn2)c1C (centres undefined)	11.2 µM [falling, partial curve, poor fit]	–
Cc1nc2oc3c(NCC4CCCO4)ncnc3c2c2c1COC(C)(C)C2 (centres undefined)	0.891 µM [falling, partial curve, poor fit]	–
COc1cc(/C=C(\C#N)c2nc3ccccc3[nH]2)ccc1O	8.91 µM [falling, partial curve]	–
Cc1cc2c(cc1S(=O)(=O)NCc1ccccc1)OCC(=O)N2	10 µM [falling, partial curve]	–
Cc1csc(NC(=O)CCCc2cccs2)n1	11.2 µM [falling, single point]	–
Cc1onc(-c2ccccc2)c1C(=O)N/N=C/c1ccc(O)c([N+](=O)[O-])c1	22.4 µM [falling, single point]	–
CCOC(=O)c1cccc(NC(=S)NC(=O)c2cccnc2)c1	11.2 µM [falling, partial curve]	–
CCSc1nnc(NC(=O)c2nc(S(=O)(=O)Cc3ccc(F)cc3)ncc2Cl)s1	35.5 µM [falling, single point]	31.6 µM [rising, single point]
O=C(c1ccc(Cl)cc1)c1c[nH]c(C(=O)C(Cl)(Cl)Cl)c1	6.51 µM [falling, partial curve, poor fit]	–
COc1cccc2cc(C(=O)C3=C(O)C(=O)N(Cc4ccco4)C3c3cccnc3)oc12 (centres undefined)	3.66 µM [falling, single point]	6.51 µM [rising, partial curve, poor fit]
CN(CC(=O)NCc1ccco1)CC(=O)Nc1ccc(F)c(F)c1F	23.1 µM [falling, partial curve, poor fit]	–
COc1cc2cnc(C3=CCCCC3)cc2cc1OC	18.4 µM [rising, partial curve]	–
Cn1c(=O)n(C)c2cc(/C=N/NC(N)=S)ccc21	12.6 µM [rising, partial curve]	–
Cc1occc(=O)c1OCc1c(Cl)cccc1Cl	10 µM [rising, partial curve]	–
Cn1nnc2cc(NC(=O)N3CCN(c4ccccn4)CC3)ccc21	0.291 µM [rising, partial curve, poor fit]	–
O=C(CC1C[C@H](C(=O)N2CCCCC2)[C@@]2(CCc3ccccc3)c3[nH]c4ccccc4c3CCN2C1=O)NCCCn1ccnc1 (some centres undefined)	23.1 µM [falling, single point]	–
Cc1cccc(OCc2n[nH]c(=S)o2)c1	1.12 µM [rising, partial curve, poor fit]	–

Entries of single compounds, looked up by structure. Order of values: AC50 [1]	AC50 [2]
`CN(C)CCCNc1cc(-c2ccccc2)nc2cc(-c3cccc(F)c3)nn12` reads 12.6 µM [falling, partial curve]	–
`Cc1nc2oc3c(NCC4CCCO4)ncnc3c2c2c1COC(C)(C)C2` (centres undefined) reads 0.891 µM [falling, partial curve, poor fit]	–

Following part:

SMILES	AC50 [1]	AC50 [2]
O=C1C=C(c2ccccc2)C[C@H](c2cccs2)[C@H]1n1nnc([N+](=O)[O-])n1	16.4 µM [falling, single point]	4.61 µM [rising, full curve, poor fit]
CCOC(=O)C1=C(C)Nc2ncnn2C1c1ccccc1F (centres undefined)	7.31 µM [falling, partial curve]	–
Cc1ccc2c(COC(=O)C3=COCCO3)cc(=O)oc2c1	14.1 µM [rising, single point]	–
Cc1cc(C(=O)COC(=O)c2n[nH]c3ccccc23)c(C)n1CC1CCCO1 (centres undefined)	7.94 µM [falling, partial curve]	–
Fc1ccc(CCNC(=S)Nc2ccc(F)cc2)cc1	14.6 µM [falling, single point]	–
N#Cc1c(N)sc2c1CCN(C(=O)OCc1ccccc1)C2	2.59 µM [rising, partial curve, poor fit]	–
CCCN1Cc2cccc(C(=O)NCc3ccccc3OC)c2C1=O	2.31 µM [rising, partial curve]	–
CCOC(=O)C(=Cc1ccc(F)cc1)C(=O)OCC	5.62 µM [falling, partial curve, poor fit]	–
Cc1ccc(N2CC(=O)N(CC(=O)O)C2=O)cc1	5.62 µM [falling, single point]	–
CCOC(=O)N1CCN(c2c(N3CCN(C(=O)OCC)CC3)c(=O)c2=O)CC1	35.5 µM [rising, single point]	–
O=[N+]([O-])c1cccc2c(S(=O)(=O)N3CCCCC3)cccc12	31.6 µM [rising, single point]	–
Cc1nc(C)n(CC(O)COc2ccc(C(=O)c3ccccc3)cc2)n1 (centres undefined)	1.84 µM [rising, partial curve, poor fit]	–
CC(=O)Cc1nsc(NC(=O)c2ccc(Cl)cc2Cl)n1	11.2 µM [rising, partial curve, poor fit]	–
COc1ccc(OC)c(CCNC(=O)CC2Oc3ccccc3NC2=O)c1 (centres undefined)	3.26 µM [falling, partial curve]	–
CN1c2ccsc2C(O)=C(C(=S)Nc2ccccc2)S1(=O)=O	18.4 µM [falling, single point]	–
CCN(Cc1cnn(C)c1)Cc1nc(C(c2ccccc2)c2ccccc2)no1	35.5 µM [falling, single point]	–
CCN1c2ccccc2NC2C1C(C(C)=O)C(=O)N2c1ccc(Cl)cc1 (centres undefined)	35.5 µM [falling, single point]	–
CCOC(=O)N1CCC(NC(=O)c2cc(COc3ccccc3SC)on2)CC1	35.5 µM [falling, single point]	–
Cc1cc(C(=O)N2CCC(Cc3ccccc3)CC2)no1	3.98 µM [rising, partial curve, poor fit]	–
O=c1[nH]nc(Cc2ccccc2)c2ccccc12	5.17 µM [rising, full curve]	–

— PubChem BioAssay AID493014 (National Center for Advancing Translational Sciences (NCATS), 2011)
